The nature of this test: Evaluated for Adrenoceptor from guinea pig left atrium by using isoproterenol as agonist. It is filed as functional, tissue-based. The conditions noted are these: Cavia porcellus, Cardiac atrium; read-out: pA2 (converted).

Results on one compound are retold here after ChEMBL document CHEMBL1122196, “Arylethanolamines derived from salicylamide with alpha- and beta-adrenoceptor blocking activities. Preparation of labetalol, its enantiomers, and related salicylamides” (J Med Chem, 1982).

As for `CC(C)NCC(O)COc1cccc2ccccc12` (stereo unspecified) [PROPRANOLOL], the Kb was 1.55 nM.
